From publication PMC3299299, “Recombinant Expression and Characterization of Human and Murine ACE2: Species-Specific Activation of the Alternative Renin-Angiotensin-System” (International Journal of Hypertension, 2012)
Results are given in words; binding and its absence hold for the method and conditions named. Some entries that bind do so weakly or less than the wild type.

Molecular target: T1, recombinant murine ACE2 (angiotensin-converting enzyme 2), extracellular domain (murine), Q8R0I0
T1 chain: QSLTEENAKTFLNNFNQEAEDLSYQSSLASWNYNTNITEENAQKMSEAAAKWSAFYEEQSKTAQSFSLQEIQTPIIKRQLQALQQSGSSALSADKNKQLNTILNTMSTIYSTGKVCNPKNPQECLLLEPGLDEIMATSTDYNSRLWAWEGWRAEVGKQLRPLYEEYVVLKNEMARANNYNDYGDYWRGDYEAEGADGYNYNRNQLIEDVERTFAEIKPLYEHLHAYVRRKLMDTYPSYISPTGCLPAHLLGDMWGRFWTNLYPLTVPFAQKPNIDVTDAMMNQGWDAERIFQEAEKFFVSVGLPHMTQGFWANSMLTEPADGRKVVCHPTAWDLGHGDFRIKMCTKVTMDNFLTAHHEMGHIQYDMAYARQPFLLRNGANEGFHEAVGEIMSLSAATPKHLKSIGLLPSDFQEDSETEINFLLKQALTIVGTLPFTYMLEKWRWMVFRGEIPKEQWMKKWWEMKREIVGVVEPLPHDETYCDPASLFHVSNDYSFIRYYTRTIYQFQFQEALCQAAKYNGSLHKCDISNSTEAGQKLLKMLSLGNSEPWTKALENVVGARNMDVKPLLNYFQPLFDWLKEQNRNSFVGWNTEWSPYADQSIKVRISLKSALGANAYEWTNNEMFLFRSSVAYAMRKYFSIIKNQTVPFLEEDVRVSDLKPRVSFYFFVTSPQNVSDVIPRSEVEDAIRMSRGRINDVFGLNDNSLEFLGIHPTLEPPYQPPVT
Experiment: SEC; size-exclusion chromatography of 5 ug of the purified enzyme, absorbance at 280 nm in line; both purified
Details: remark: other sources report otherwise

B1: recombinant murine ACE2 (angiotensin-converting enzyme 2), extracellular domain, Q8R0I0 18-740 (enzyme)
chain: QSLTEENAKTFLNNFNQEAEDLSYQSSLASWNYNTNITEENAQKMSEAAAKWSAFYEEQSKTAQSFSLQEIQTPIIKRQLQALQQSGSSALSADKNKQLNTILNTMSTIYSTGKVCNPKNPQECLLLEPGLDEIMATSTDYNSRLWAWEGWRAEVGKQLRPLYEEYVVLKNEMARANNYNDYGDYWRGDYEAEGADGYNYNRNQLIEDVERTFAEIKPLYEHLHAYVRRKLMDTYPSYISPTGCLPAHLLGDMWGRFWTNLYPLTVPFAQKPNIDVTDAMMNQGWDAERIFQEAEKFFVSVGLPHMTQGFWANSMLTEPADGRKVVCHPTAWDLGHGDFRIKMCTKVTMDNFLTAHHEMGHIQYDMAYARQPFLLRNGANEGFHEAVGEIMSLSAATPKHLKSIGLLPSDFQEDSETEINFLLKQALTIVGTLPFTYMLEKWRWMVFRGEIPKEQWMKKWWEMKREIVGVVEPLPHDETYCDPASLFHVSNDYSFIRYYTRTIYQFQFQEALCQAAKYNGSLHKCDISNSTEAGQKLLKMLSLGNSEPWTKALENVVGARNMDVKPLLNYFQPLFDWLKEQNRNSFVGWNTEWSPYADQSIKVRISLKSALGANAYEWTNNEMFLFRSSVAYAMRKYFSIIKNQTVPFLEEDVRVSDLKPRVSFYFFVTSPQNVSDVIPRSEVEDAIRMSRGRINDVFGLNDNSLEFLGIHPTLEPPYQPPVT
binding: binds
